Measurements reported in PubChem BioAssay AID1259308 (NCATS, 2017).
Aim: 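Genes whose loss raises luciferase production in HEK293 cells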 (primary screen). Cells: human HEK293 embryonic kidney cells stably expressing firefly luciferase (HEK-CMV-Luc2-Hygro). Reagents: single siRNA against human genes, 0.8 pmol siRNA per well. Duration: 72 h. Read-out: 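Reporter luminescence and viable-cell signal on separate replicate plates, given as percent of non-targeting control and median/MAD z-scores, plus per-cell luciferase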. Reading the numbers: total luciferase, z-score: higher = more reporter protein produced. Active means: 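Active when the median/MAD z-score for overall luciferase is greater than 3; a gene was taken forward for validation with new siRNAs if at least two of its three siRNAs passed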. Calls: active = raised luciferase; inactive = no rise.
This is one part, drawn at random, of about 59,000 deposited reagents. Over the whole deposit, about 1,510 (2.6%) got an active call. 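Calls use total luciferase alone and ignore viability, so some active siRNAs may act by altering cell number.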 Not all columns of the deposit are shown. Reagent sequences are not shown.

TBC1D3P2 [SID160769685] — total luciferase, z-score = -0.181; outcome = inactive
TBC1D3P2 [SID160769686] — total luciferase, z-score = -0.496; outcome = inactive
TBC1D3P2 [SID160769687] — total luciferase, z-score = 0.0589; outcome = inactive
AQP6 [SID160719286] — total luciferase, z-score = 0.68; outcome = inactive
AQP6 [SID160719298] — total luciferase, z-score = -0.0129; outcome = inactive
AQP6 [SID160719309] — total luciferase, z-score = -0.0389; outcome = inactive
NOL4L-DT [SID160758884] — total luciferase, z-score = 1.47; outcome = inactive
NOL4L-DT [SID160758885] — total luciferase, z-score = -2.22; outcome = inactive
NOL4L-DT [SID160758886] — total luciferase, z-score = 0.989; outcome = inactive
GNG2 [SID160741628] — total luciferase, z-score = 0.164; outcome = inactive
GNG2 [SID160741629] — total luciferase, z-score = 0.755; outcome = inactive
GNG2 [SID160741630] — total luciferase, z-score = -0.381; outcome = inactive
PTF1A [SID160762419] — total luciferase, z-score = -0.675; outcome = inactive
PTF1A [SID160762420] — total luciferase, z-score = 0.344; outcome = inactive
PTF1A [SID160762421] — total luciferase, z-score = 0.398; outcome = inactive
WBP11 [SID160741279] — total luciferase, z-score = 1.16; outcome = inactive
WBP11 [SID160741280] — total luciferase, z-score = 4.73; outcome = active
WBP11 [SID160741282] — total luciferase, z-score = 2.01; outcome = inactive
SOWAHD [SID160764974] — total luciferase, z-score = 1.01; outcome = inactive
SOWAHD [SID160764975] — total luciferase, z-score = -0.69; outcome = inactive
SOWAHD [SID160764976] — total luciferase, z-score = 1.11; outcome = inactive
KRT18 [SID160776424] — total luciferase, z-score = 0.102; outcome = inactive
KRT18 [SID160776425] — total luciferase, z-score = -0.161; outcome = inactive
KRT18 [SID160776426] — total luciferase, z-score = -0.751; outcome = inactive
FKBP6 [SID160720108] — total luciferase, z-score = -0.79; outcome = inactive
FKBP6 [SID160720109] — total luciferase, z-score = 0.71; outcome = inactive
FKBP6 [SID160732032] — total luciferase, z-score = -0.586; outcome = inactive
HACL2 [SID160729700] — total luciferase, z-score = 0.814; outcome = inactive
HACL2 [SID160729701] — total luciferase, z-score = 4.78; outcome = active
HACL2 [SID160729703] — total luciferase, z-score = 0.22; outcome = inactive
PCSK4 [SID160731464] — total luciferase, z-score = 2.02; outcome = inactive
PCSK4 [SID160742117] — total luciferase, z-score = -0.857; outcome = inactive
PCSK4 [SID160742118] — total luciferase, z-score = -0.915; outcome = inactive

5 of these entries in another layout:
{"gene symbol":"TBC1D3P2","PubChem SID":"SID160769685","total luciferase, z-score":-0.181,"outcome":"inactive"}
{"gene symbol":"TBC1D3P2","PubChem SID":"SID160769686","total luciferase, z-score":-0.496,"outcome":"inactive"}
{"gene symbol":"TBC1D3P2","PubChem SID":"SID160769687","total luciferase, z-score":0.0589,"outcome":"inactive"}
{"gene symbol":"AQP6","PubChem SID":"SID160719286","total luciferase, z-score":0.68,"outcome":"inactive"}
{"gene symbol":"AQP6","PubChem SID":"SID160719298","total luciferase, z-score":-0.0129,"outcome":"inactive"}
